# According to the supplement of paper PMC11732987, “Enantioselective OTUD7B fragment discovery through chemoproteomics screening and high-throughput optimisation” (Communications Chemistry, 2025):
# The chains behind the UniProt entries cited, without tags or fusion partners. Where a name states a change or a piece, a line headed by the entry shows the natural chain unless it says otherwise.
# UniProt Q08AM6: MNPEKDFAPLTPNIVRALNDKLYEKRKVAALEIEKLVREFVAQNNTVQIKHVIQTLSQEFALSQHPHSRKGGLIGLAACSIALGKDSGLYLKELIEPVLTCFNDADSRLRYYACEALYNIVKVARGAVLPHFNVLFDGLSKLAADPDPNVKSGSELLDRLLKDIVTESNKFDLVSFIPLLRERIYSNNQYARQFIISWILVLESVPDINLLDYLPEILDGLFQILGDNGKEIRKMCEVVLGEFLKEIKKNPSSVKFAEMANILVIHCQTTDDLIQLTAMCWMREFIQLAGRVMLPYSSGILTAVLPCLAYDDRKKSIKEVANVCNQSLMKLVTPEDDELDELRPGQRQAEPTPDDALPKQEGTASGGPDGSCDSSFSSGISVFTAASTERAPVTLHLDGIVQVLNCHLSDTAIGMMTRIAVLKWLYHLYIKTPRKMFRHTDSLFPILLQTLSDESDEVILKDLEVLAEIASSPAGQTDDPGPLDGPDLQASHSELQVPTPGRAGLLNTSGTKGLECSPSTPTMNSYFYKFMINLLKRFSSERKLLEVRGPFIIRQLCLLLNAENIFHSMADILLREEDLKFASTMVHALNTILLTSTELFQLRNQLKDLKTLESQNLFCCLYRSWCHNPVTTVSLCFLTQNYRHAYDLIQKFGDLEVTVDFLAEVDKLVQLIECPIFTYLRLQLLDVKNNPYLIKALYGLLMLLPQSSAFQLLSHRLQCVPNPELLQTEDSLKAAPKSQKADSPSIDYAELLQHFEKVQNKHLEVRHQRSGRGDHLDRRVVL
# UniProt P31930: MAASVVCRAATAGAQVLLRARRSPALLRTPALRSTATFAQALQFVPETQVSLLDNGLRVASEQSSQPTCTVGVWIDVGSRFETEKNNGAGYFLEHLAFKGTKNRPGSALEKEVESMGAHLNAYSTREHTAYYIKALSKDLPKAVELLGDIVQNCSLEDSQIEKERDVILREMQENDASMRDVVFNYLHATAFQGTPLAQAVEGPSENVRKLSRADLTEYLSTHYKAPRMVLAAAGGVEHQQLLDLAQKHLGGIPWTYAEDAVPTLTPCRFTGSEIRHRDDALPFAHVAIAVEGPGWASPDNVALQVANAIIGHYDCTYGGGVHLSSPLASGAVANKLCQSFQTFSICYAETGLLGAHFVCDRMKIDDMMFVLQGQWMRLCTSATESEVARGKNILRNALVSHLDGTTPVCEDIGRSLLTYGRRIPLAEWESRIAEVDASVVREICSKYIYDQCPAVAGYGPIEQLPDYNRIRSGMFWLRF
# UniProt Q92900: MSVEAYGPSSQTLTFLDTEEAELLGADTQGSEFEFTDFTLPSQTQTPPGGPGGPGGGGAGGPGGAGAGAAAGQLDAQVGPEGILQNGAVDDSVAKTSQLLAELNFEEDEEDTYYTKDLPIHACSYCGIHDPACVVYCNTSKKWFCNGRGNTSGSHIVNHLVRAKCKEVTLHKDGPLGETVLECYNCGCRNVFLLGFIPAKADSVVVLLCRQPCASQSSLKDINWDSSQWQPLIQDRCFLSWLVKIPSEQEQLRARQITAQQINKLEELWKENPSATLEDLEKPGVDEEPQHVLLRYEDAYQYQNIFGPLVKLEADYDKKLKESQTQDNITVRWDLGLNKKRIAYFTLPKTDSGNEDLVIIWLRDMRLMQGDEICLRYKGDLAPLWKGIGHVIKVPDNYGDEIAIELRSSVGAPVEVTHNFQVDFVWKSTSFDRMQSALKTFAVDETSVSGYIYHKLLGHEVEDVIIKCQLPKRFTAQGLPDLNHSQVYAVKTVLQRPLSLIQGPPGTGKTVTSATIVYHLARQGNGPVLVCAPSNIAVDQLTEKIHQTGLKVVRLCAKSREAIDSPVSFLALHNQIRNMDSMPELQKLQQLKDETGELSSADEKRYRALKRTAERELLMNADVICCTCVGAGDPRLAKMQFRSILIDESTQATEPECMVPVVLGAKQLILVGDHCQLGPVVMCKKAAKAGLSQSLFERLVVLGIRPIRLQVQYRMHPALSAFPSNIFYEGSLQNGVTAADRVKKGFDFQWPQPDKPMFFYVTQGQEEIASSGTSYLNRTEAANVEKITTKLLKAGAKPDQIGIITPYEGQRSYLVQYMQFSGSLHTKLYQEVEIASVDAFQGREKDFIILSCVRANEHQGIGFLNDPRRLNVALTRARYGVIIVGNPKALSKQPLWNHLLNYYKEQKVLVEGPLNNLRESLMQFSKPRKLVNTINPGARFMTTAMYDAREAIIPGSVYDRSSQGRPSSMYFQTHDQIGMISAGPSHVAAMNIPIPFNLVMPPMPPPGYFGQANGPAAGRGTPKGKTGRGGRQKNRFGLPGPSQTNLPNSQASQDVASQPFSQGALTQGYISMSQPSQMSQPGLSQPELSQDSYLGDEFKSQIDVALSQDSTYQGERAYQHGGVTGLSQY
# UniProt Q9H9J4: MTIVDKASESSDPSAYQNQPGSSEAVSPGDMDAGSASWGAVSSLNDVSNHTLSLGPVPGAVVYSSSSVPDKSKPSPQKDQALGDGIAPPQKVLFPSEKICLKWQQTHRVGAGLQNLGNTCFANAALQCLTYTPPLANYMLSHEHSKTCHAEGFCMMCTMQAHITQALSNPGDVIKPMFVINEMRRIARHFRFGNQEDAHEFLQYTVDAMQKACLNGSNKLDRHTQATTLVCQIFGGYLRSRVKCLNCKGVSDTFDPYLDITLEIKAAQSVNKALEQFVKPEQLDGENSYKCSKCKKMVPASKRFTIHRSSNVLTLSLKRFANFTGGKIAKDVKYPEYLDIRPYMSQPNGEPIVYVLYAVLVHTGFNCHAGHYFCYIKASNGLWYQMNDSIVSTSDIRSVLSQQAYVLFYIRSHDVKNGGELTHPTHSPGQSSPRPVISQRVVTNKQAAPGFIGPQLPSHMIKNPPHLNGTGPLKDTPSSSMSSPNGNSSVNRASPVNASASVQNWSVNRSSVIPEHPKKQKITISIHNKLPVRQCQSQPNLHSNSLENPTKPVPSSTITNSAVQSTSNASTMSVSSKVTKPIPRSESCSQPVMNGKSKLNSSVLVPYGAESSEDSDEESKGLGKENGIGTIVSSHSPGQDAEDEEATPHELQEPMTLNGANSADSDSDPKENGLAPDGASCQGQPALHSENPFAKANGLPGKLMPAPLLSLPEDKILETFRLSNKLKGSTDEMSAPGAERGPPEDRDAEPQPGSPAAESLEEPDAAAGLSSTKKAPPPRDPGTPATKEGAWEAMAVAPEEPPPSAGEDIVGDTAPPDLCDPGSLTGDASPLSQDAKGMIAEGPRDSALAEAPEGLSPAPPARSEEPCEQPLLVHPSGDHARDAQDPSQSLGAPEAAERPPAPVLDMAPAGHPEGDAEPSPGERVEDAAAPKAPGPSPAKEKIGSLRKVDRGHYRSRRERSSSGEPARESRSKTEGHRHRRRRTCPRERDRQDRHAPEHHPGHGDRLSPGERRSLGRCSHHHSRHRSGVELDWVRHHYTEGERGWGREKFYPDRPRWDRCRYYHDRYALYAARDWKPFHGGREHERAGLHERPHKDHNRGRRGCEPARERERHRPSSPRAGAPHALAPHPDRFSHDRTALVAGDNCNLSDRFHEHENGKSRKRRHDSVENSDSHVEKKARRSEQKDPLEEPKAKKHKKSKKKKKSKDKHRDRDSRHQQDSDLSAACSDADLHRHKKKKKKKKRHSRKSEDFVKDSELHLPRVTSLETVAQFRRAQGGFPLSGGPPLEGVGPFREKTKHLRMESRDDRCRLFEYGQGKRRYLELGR
# UniProt Q9UPU5: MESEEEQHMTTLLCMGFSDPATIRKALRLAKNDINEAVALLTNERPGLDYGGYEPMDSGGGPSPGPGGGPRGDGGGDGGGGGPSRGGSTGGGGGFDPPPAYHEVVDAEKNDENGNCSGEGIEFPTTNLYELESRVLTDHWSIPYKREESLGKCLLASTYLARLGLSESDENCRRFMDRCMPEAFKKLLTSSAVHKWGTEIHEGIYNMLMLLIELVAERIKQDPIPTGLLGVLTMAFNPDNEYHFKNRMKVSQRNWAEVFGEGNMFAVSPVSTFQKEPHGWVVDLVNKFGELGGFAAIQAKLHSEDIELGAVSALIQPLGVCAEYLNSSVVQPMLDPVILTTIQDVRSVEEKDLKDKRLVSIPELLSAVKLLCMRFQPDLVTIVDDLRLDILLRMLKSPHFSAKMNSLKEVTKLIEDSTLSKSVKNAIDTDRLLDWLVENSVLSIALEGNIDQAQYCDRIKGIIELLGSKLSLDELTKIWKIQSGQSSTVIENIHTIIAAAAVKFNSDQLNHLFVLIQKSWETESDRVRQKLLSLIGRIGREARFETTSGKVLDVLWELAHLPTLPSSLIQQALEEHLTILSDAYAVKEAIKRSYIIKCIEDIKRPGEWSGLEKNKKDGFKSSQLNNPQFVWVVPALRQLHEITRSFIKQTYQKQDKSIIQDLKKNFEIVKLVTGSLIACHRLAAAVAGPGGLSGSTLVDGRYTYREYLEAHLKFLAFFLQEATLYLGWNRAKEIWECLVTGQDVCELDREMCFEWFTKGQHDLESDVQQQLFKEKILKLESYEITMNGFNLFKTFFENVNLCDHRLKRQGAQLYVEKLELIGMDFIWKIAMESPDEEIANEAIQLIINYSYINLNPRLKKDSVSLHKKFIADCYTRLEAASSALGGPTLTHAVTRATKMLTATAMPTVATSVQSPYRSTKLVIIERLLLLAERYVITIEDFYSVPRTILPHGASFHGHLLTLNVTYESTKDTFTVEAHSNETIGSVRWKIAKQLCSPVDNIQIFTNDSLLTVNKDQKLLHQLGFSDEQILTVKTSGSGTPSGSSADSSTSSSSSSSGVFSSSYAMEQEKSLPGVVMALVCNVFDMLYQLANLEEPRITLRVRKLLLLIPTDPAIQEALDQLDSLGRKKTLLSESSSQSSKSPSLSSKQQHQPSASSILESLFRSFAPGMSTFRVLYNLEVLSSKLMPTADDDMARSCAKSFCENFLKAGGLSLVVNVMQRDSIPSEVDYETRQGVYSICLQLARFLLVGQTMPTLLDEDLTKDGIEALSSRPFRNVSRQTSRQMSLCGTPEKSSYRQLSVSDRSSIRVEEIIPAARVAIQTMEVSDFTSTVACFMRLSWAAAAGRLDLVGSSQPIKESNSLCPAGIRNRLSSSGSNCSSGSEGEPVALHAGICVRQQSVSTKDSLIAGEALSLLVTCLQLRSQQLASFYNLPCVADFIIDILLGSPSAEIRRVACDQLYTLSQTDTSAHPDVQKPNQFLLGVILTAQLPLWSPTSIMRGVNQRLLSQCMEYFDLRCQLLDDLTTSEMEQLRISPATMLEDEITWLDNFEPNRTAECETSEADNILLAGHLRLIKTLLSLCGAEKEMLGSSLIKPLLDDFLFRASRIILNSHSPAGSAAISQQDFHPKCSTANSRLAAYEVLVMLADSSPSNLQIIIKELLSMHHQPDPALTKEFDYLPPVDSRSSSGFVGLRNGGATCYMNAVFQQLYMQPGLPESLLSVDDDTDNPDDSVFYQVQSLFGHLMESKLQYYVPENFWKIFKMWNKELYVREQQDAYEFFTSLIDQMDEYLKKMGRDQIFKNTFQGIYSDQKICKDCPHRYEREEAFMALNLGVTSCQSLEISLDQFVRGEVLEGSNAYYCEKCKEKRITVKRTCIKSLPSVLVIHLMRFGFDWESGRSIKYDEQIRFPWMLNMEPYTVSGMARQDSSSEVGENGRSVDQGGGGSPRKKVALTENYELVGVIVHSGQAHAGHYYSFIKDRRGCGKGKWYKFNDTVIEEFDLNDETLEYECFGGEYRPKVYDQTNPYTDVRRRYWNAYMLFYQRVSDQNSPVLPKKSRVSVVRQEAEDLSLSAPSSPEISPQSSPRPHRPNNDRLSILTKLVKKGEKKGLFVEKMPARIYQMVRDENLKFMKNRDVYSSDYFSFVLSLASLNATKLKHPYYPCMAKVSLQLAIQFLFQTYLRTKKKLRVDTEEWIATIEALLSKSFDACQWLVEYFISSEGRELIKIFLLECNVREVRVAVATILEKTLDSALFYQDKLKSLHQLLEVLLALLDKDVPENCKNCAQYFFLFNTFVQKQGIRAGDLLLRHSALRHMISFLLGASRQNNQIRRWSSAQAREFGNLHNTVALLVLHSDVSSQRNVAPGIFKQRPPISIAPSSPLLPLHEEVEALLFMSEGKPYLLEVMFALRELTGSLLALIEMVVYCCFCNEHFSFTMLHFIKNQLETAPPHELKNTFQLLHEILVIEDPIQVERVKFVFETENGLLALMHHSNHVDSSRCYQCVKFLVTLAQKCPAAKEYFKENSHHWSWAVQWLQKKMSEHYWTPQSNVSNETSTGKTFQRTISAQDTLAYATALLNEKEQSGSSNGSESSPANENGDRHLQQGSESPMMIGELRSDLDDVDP
# UniProt P61758, whole entry, looked up: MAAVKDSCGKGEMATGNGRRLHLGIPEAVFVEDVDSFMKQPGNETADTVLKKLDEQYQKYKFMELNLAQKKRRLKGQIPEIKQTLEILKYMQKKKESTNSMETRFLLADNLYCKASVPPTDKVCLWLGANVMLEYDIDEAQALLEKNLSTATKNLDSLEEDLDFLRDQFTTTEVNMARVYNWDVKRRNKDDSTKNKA
# Some of the results follow. The data scatter; read single values as rough.
# Compound: ClCC(=O)N[C@@H]1CCCc2ccccc12
# Test: log2 mean competition ratio of IA-DTB cysteine labelling (DMSO/compound) (log2 ratio); higher = stronger cysteine engagement by compound
# Details: 50 µM; treatment time: 4 h; cell line lysate: HEK293T
# Protocol: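 IA-DTB competitive cysteine chemoproteomics in HEK293T RIPA lysate. Lysates were treated with compound 29 or 30 at 50 or 200 µM for 4 h, then IA-DTB (500 µM, 1 h), trypsin-digested, NeutrAvidin-enriched and analysed by diaPASEF. Competition ratio = intensity DMSO / intensity compound (n=4 treated, n=64 DMSO); binding: mean log2 CR ≥ 1 and p ≤ 0.05 plus QC filters. Target is the cysteine site.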
row,Target,log2 mean competition ratio
1,UBTF C68 (UniProt P17480),-0.143
2,VPS18 C433 (UniProt Q9P253),-0.0287
3,UNK C45 (UniProt Q9C0B0),0.0174
4,VAC14 C719 (UniProt Q08AM6),-0.097
5,UQCRC1 C380 (UniProt P31930),0.0617
6,UPF1 C374 (UniProt Q92900),-0.0572
7,USP42 C867 (UniProt Q9H9J4),-0.211
8,USP9Y C2294,-0.0753
9,USP24 C172 (UniProt Q9UPU5),0.115
10,VCL C85 (UniProt P18206),-0.0329
11,USP54 C1270 (UniProt Q70EL1),-0.118
12,USP34 C741 (UniProt Q70CQ2),0.0326
13,VBP1 C113 (UniProt P61758),0.552
14,USP28 C701 (UniProt Q96RU2),-0.386
15,UBR5 C2314 (UniProt O95071),-0.174
16,USP24 C1628 (UniProt Q9UPU5),0.0845
17,USP32 C786 (UniProt Q8NFA0),0.163
18,UPF2 C1107 (UniProt Q9HAU5),0.0845
19,VPS13D C374 (UniProt Q5THJ4),-0.229
20,USP7 C315,-0.153

# Same assay, conditions: 200 µM; treatment time: 4 h; cell line lysate: HEK293T
row,Target,log2 mean competition ratio
1,UBTF C68 (UniProt P17480),0.0617
2,VPS18 C433 (UniProt Q9P253),-0.0902
3,UNK C45 (UniProt Q9C0B0),0.467
4,VAC14 C719 (UniProt Q08AM6),-0.0894
5,UQCRC1 C380 (UniProt P31930),-0.136
6,UPF1 C374 (UniProt Q92900),0.0386
7,USP42 C867 (UniProt Q9H9J4),-0.178
8,USP9Y C2294,-0.127
9,USP24 C172 (UniProt Q9UPU5),0.382
10,VCL C85 (UniProt P18206),-0.0643
11,USP54 C1270 (UniProt Q70EL1),0.213
12,USP34 C741 (UniProt Q70CQ2),0.554
13,VBP1 C113 (UniProt P61758),0.277
14,USP28 C701 (UniProt Q96RU2),0.48
15,UBR5 C2314 (UniProt O95071),-0.153
16,USP24 C1628 (UniProt Q9UPU5),0.0288
17,USP32 C786 (UniProt Q8NFA0),0.729
18,UPF2 C1107 (UniProt Q9HAU5),-0.245
19,VPS13D C374 (UniProt Q5THJ4),0.235
20,USP7 C315,-0.123
